Measurements taken from patent US20240327540A1.
These are yes or no findings as the source states them, for the method shown. Some entries that bind do so weakly or less than the wild type.

Protein sequences, listed by entry. Tags and fused reporters are not part of them. Lines headed by an entry give the natural chain unless they say otherwise; changes in a name come on top.
UniProt Q9UNK4: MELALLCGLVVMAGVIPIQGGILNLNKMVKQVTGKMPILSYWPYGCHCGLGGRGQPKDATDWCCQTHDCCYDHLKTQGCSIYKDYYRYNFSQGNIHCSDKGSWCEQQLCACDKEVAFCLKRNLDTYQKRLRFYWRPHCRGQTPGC

Legend:
[1] = target: human PLA2G2D (human) (UniProt Q9UNK4); assay: assay not given
[2] = target: human PLA2G2D (human) (UniProt Q9UNK4); assay: ELISA / flow cytometry screening of hybridoma antibodies

B1: 44.64E1.B12 (antibody, V domains shown)
VH: DVQLQESGPGLVKPSQSLSLTCSVTGYSITSGYYWNWIRQFPGNKLEWMGYISYDGSNNYNPSLKSRISITRDTSKNQFFLKLNSVTTEDTATYYCARWGYYDSRIDYWGQGTTLTVSS
VL: ETTVTQSPASLSMAIGEKVTIRCITSTDIDDDMNWFQQKPGEPPKLLISEGNTLRPGVPSRFSSNGSGTDFVFTIENMLSEDVADYYCLQSDNLPFTFGAGTKVELK
binding [1]: binds | binding [2]: binds
